PubChem BioAssay AID1259405 | NCATS, 2018
Screen: 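Silenced genes that increase secreted GFP made by CHO cells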 (primary screen). System: Chinese hamster CHO-K1 ovary cells with stable secreted eGFP expression. Reagent: single siRNA against mouse genes, 0.8 pmol siRNA per well (2 µl of 400 nM stock). Time to read-out: 3 days. Detection: 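Per-well intracellular GFP measured by laser scanning cytometry, plus viability from ATP luminescence, each relative to plate median of non-targeting control wells, in %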. Scale: GFP, % of control: higher = more GFP per well, higher productivity; viability (ATP), % of control: higher = more viable cells (more ATP). Call rule: 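Called active when intracellular GFP, relative to negative control, is at or above 120%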.
The deposit covers about 50,000 reagents; this is a random part of them. Over the whole deposit, about 4,000 (8%) were called active. 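Mouse siRNA library applied to hamster cells; one well for each siRNA.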 Unmarked entries are inactive. Reagents against one gene are numbered here. No sequences are given here.

Target gene,reagent no.,"GFP, % of control","viability (ATP), % of control"
4930555G01Rik (GeneID 108978),1,62.4,111
4930555G01Rik (GeneID 108978),2,16.5,59.1
4930555G01Rik (GeneID 108978),3,55.3,66.9
Or51b6 (GeneID 18365),1,102,55.1
Or51b6 (GeneID 18365),2,73.1,90.1
Or51b6 (GeneID 18365),3,86.3,46.9
Figla (GeneID 26910),1,50.6,40.8
Figla (GeneID 26910),2,56.4,62.3
Figla (GeneID 26910),3,97.6,81.4
Uba52 (GeneID 22186),1,77.5,87.3
Uba52 (GeneID 22186),2,3.21,3.17
Uba52 (GeneID 22186),3,75.6,69.6
Samd4 (GeneID 74480),1,73,90.8
Samd4 (GeneID 74480),2,71.7,69.4
Samd4 (GeneID 74480),3,68,76.5
Calhm6 (GeneID 215900),1,57.8,39.8
Calhm6 (GeneID 215900),2,28.6,33.7
Calhm6 (GeneID 215900),3,102,74.4
Cttnbp2nl (GeneID 80281),1,39.4,26.7
Cttnbp2nl (GeneID 80281),2,57.2,65.1
Cttnbp2nl (GeneID 80281),3,133 (active),64.6
Ralgps2 (GeneID 78255),1,40.5,33.4
Ralgps2 (GeneID 78255),2,64.4,56.5
Ralgps2 (GeneID 78255),3,55.3,52.9
Or1q1 (GeneID 258616),1,102,68.5
Or1q1 (GeneID 258616),2,88.8,81.2
Or1q1 (GeneID 258616),3,57.3,74.9
Ulbp1 (GeneID 77777),1,81.3,50.2
Ulbp1 (GeneID 77777),2,81.9,86.5
Ulbp1 (GeneID 77777),3,78.5,58.8
Or4f6 (GeneID 258441),1,107,73.1
Or4f6 (GeneID 258441),2,48.5,60.2
Or4f6 (GeneID 258441),3,59.5,103
Lingo2 (GeneID 242384),1,72,61.3
Lingo2 (GeneID 242384),2,90.8,62.4
Lingo2 (GeneID 242384),3,80.9,71.2
